Measurements reported in PubChem BioAssay AID743121 (NCATS, 2013).
This is one part, drawn at random, of about 26,000 reagents. 167 of all reagents (0.63%) were called active. 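Calls are per gene from RSA p-values that are not deposited; an individual active-marked siRNA can sensitise only weakly.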 Unmarked entries are inactive. The numbers tell different reagents against one gene apart. Further read-outs or replicates are left out here.

Screen: 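Genes whose silencing strengthens cell killing by camptothecin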 (primary screen)
Cells: MDA-MB-231 cells, a human breast cancer line
Knock-down reagent: single siRNA against human genes, 20 nM siRNA (0.8 pmol per well)
Timing: 120 h (drug added 48 h after transfection, read 72 h later)
Challenge: camptothecin 20 nM (about EC30) for 72 h; vehicle 0.1% DMSO in parallel plates
Read-out: 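Cell viability by ATP luminescence (CellTiter-Glo) as % of non-targeting siRNA wells, and the log2 ratio of viability without drug over viability with camptothecin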
Direction: log2 vehicle/camptothecin viability: higher = stronger sensitisation to camptothecin
Rule for the call: 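Active genes have an RSA gene-level p-value below 0.001, computed from the ratios of their separate siRNAs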

log2 vehicle/camptothecin viability, by target and reagent
CCNT1 (cyclin T1): #1 0.0495; #2 -1; #3 -0.263
CCNL1 (cyclin L1): #1 -0.246; #2 -0.0939; #3 -0.0325; #4 0.0448
HDAC1 (histone deacetylase 1): #1 0.313; #2 -0.213; #3 0.137; #4 -0.415
MMD (monocyte to macrophage differentiation associated): #1 -0.576; #2 -0.363; #3 -0.566; #4 -0.0787
BST2 (bone marrow stromal cell antigen 2): #1 -0.226; #2 0.286; #3 0.766; #4 -0.34
PKN1 (protein kinase N1): #1 -0.245; #2 -0.776; #3 0.378; #4 -0.185
PIK3CB: #1 -0.27; #2 0.154; #3 -0.177; #4 -0.195
IL17A (interleukin 17A): #1 -0.0175; #2 0.242; #3 -0.0407
MAP2K6 (mitogen-activated protein kinase kinase 6): #1 -0.113; #2 -0.558; #3 -0.18; #4 -0.129
RAB2B (RAB2B, member RAS oncogene family): #1 0.351; #2 0.0493; #3 -0.243; #4 -0.00485
FH (fumarate hydratase): #1 -0.277; #2 0.0656; #3 -0.136
SIGLEC12 (sialic acid binding Ig like lectin 12): #1 -0.0672; #2 0.0856; #3 -0.0138; #4 -0.19
TNF (tumor necrosis factor): #1 -0.577; #2 -0.434; #3 -0.108; #4 -0.137
PPP1CA (protein phosphatase 1 catalytic subunit alpha): #1 -0.117; #2 0.365; #3 0.0305; #4 -0.167
SLC13A3: #1 0.96; #2 0.282; #3 -0.123; #4 -0.00534
PSMB6 (proteasome 20S subunit beta 6): #1 -0.544; #2 -0.308; #3 -0.356; #4 -0.114
GABRG1 (gamma-aminobutyric acid type A receptor subunit gamma1): #1 -0.212; #2 0.0547; #3 0.0494; #4 0.249
CCR3 (C-C motif chemokine receptor 3): #1 -0.496; #2 -0.0833; #3 0.227; #4 -0.382

Ordered by “log2 vehicle/camptothecin viability” (highest first): some entries from above.
target	siRNA no.	log2 vehicle/camptothecin viability
GABRG1 (gamma-aminobutyric acid type A receptor subunit gamma1)	2	0.0547
GABRG1 (gamma-aminobutyric acid type A receptor subunit gamma1)	3	0.0494
SLC13A3	4	-0.00534
PSMB6 (proteasome 20S subunit beta 6)	4	-0.114
SLC13A3	3	-0.123
GABRG1 (gamma-aminobutyric acid type A receptor subunit gamma1)	1	-0.212
PSMB6 (proteasome 20S subunit beta 6)	2	-0.308
PSMB6 (proteasome 20S subunit beta 6)	3	-0.356
PSMB6 (proteasome 20S subunit beta 6)	1	-0.544
